# The list shows a part of the results. Repeats are few or missing, and single values can be far off.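 Cells were imaged in 1,536-well plates, and nuclei stained with an antibody against cleaved PARP were counted against all DNA-stained nuclei to give the apoptosis fraction. Screening doses were chosen to leave most cells alive, and resting and induced cleaved-PARP levels differ strongly between cell lines.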
# Tested on: WM451Lu
# Experiment: cleaved PARP positive nuclei fraction relative to DMSO control; melanoma cells; higher = more apoptosis
# Conditions: library dose: low library concentration; 72 h
row,SMILES,cleaved PARP positive nuclei fraction [%]
1,"CO[C@H]1C[C@@H]2CC[C@@H](C)[C@@](O)(O2)C(=O)C(=O)N2CCCC[C@H]2C(=O)O[C@H]([C@H](C)C[C@@H]2CC[C@@H](OCCO)[C@H](OC)C2)CC(=O)[C@H](C)/C=C(\C)[C@@H](O)[C@@H](OC)C(=O)[C@H](C)C[C@H](C)/C=C/C=C/C=C/1C [everolimus] + O=S(=O)(c1ccccc1)N(CC(F)(F)F)c1ccc(C(O)(C(F)(F)F)C(F)(F)F)cc1 [T0901317] (first compound 0.02 µM, partner dose 1.4 µM)",356
2,"Cn1c(=O)n(-c2ccc(C(C)(C)C#N)cc2)c2c3cc(-c4cnc5ccccc5c4)ccc3ncc21 + CN1CCN(c2ccc3nc(-c4c(N)c5c(F)cccc5[nH]c4=O)[nH]c3c2)CC1 [Dovitinib] (first compound 0.004 µM, partner dose 0.1 µM)",77.9
3,"CO[C@H]1C[C@@H]2CC[C@@H](C)[C@@](O)(O2)C(=O)C(=O)N2CCCC[C@H]2C(=O)O[C@H]([C@H](C)C[C@@H]2CC[C@@H](OCCO)[C@H](OC)C2)CC(=O)[C@H](C)/C=C(\C)[C@@H](O)[C@@H](OC)C(=O)[C@H](C)C[C@H](C)/C=C/C=C/C=C/1C [everolimus] + COc1cc(Nc2ncc(F)c(Nc3ccc4c(n3)NC(=O)C(C)(C)O4)n2)cc(OC)c1OC [Tamatinib] (first compound 0.02 µM, partner dose 0.4 µM)",22.4
4,"CO[C@H]1C[C@@H]2CC[C@@H](C)[C@@](O)(O2)C(=O)C(=O)N2CCCC[C@H]2C(=O)O[C@H]([C@H](C)C[C@@H]2CC[C@@H](OCCO)[C@H](OC)C2)CC(=O)[C@H](C)/C=C(\C)[C@@H](O)[C@@H](OC)C(=O)[C@H](C)C[C@H](C)/C=C/C=C/C=C/1C [everolimus] + CO[C@@H]1[C@H](N(C)C(=O)c2ccccc2)C[C@H]2O[C@]1(C)n1c3ccccc3c3c4c(c5c6ccccc6n2c5c31)C(=O)NC4 [Midostaurin] (first compound 0.02 µM, partner dose 0.08 µM)",55
5,"CO[C@H]1C[C@@H]2CC[C@@H](C)[C@@](O)(O2)C(=O)C(=O)N2CCCC[C@H]2C(=O)O[C@H]([C@H](C)C[C@@H]2CC[C@@H](OCCO)[C@H](OC)C2)CC(=O)[C@H](C)/C=C(\C)[C@@H](O)[C@@H](OC)C(=O)[C@H](C)C[C@H](C)/C=C/C=C/C=C/1C [everolimus] + CCN(CC)CCCCNc1ncc2cc(-c3cc(OC)cc(OC)c3)c(NC(=O)NC(C)(C)C)nc2n1 [PD173074] (first compound 0.02 µM, partner dose 0.1 µM)",62.1
6,"CO[C@H]1C[C@@H]2CC[C@@H](C)[C@@](O)(O2)C(=O)C(=O)N2CCCC[C@H]2C(=O)O[C@H]([C@H](C)C[C@@H]2CC[C@@H](OCCO)[C@H](OC)C2)CC(=O)[C@H](C)/C=C(\C)[C@@H](O)[C@@H](OC)C(=O)[C@H](C)C[C@H](C)/C=C/C=C/C=C/1C [everolimus] + Cc1cc(N2CCOCC2)cc2[nH]c(-c3c(NC[C@@H](O)c4cccc(Cl)c4)cc[nH]c3=O)nc12 [BMS536924] (first compound 0.02 µM, partner dose 0.2 µM)",114
7,"CO[C@H]1C[C@@H]2CC[C@@H](C)[C@@](O)(O2)C(=O)C(=O)N2CCCC[C@H]2C(=O)O[C@H]([C@H](C)C[C@@H]2CC[C@@H](OCCO)[C@H](OC)C2)CC(=O)[C@H](C)/C=C(\C)[C@@H](O)[C@@H](OC)C(=O)[C@H](C)C[C@H](C)/C=C/C=C/C=C/1C [everolimus] + Cn1cc(/C=C2\C(=O)Nc3cccnc32)c2ccccc21 [GW441756] (first compound 0.02 µM, partner dose 0.4 µM)",163
8,"CO[C@H]1C[C@@H]2CC[C@@H](C)[C@@](O)(O2)C(=O)C(=O)N2CCCC[C@H]2C(=O)O[C@H]([C@H](C)C[C@@H]2CC[C@@H](OCCO)[C@H](OC)C2)CC(=O)[C@H](C)/C=C(\C)[C@@H](O)[C@@H](OC)C(=O)[C@H](C)C[C@H](C)/C=C/C=C/C=C/1C [everolimus] + Cn1c(Nc2ccc(C(F)(F)F)cc2)nc2cc(Oc3ccnc(-c4ncc(C(F)(F)F)[nH]4)c3)ccc21 [CHIR265] (first compound 0.02 µM, partner dose 0.08 µM)",286
9,"CO[C@H]1C[C@@H]2CC[C@@H](C)[C@@](O)(O2)C(=O)C(=O)N2CCCC[C@H]2C(=O)O[C@H]([C@H](C)C[C@@H]2CC[C@@H](OCCO)[C@H](OC)C2)CC(=O)[C@H](C)/C=C(\C)[C@@H](O)[C@@H](OC)C(=O)[C@H](C)C[C@H](C)/C=C/C=C/C=C/1C [everolimus] + COc1cc2ncnc(Nc3ccc(Oc4ccccc4)cc3)c2cc1OC [SrcI1] (first compound 0.02 µM, partner dose 2 µM)",51.8
10,"CO[C@H]1C[C@@H]2CC[C@@H](C)[C@@](O)(O2)C(=O)C(=O)N2CCCC[C@H]2C(=O)O[C@H]([C@H](C)C[C@@H]2CC[C@@H](OCCO)[C@H](OC)C2)CC(=O)[C@H](C)/C=C(\C)[C@@H](O)[C@@H](OC)C(=O)[C@H](C)C[C@H](C)/C=C/C=C/C=C/1C [everolimus] + CN(NC(=O)CC(=O)NN(C)C(=S)c1ccccc1)C(=S)c1ccccc1 [STA4783] (first compound 0.02 µM, partner dose 0.006 µM)",158
11,"CO[C@H]1C[C@@H]2CC[C@@H](C)[C@@](O)(O2)C(=O)C(=O)N2CCCC[C@H]2C(=O)O[C@H]([C@H](C)C[C@@H]2CC[C@@H](OCCO)[C@H](OC)C2)CC(=O)[C@H](C)/C=C(\C)[C@@H](O)[C@@H](OC)C(=O)[C@H](C)C[C@H](C)/C=C/C=C/C=C/1C [everolimus] + CCCCCCCCCCCC1=C(O)C(=O)C=C(O)C1=O [Embelin] (first compound 0.02 µM, partner dose 1.2 µM)",87.1
12,"CO[C@H]1C[C@@H]2CC[C@@H](C)[C@@](O)(O2)C(=O)C(=O)N2CCCC[C@H]2C(=O)O[C@H]([C@H](C)C[C@@H]2CC[C@@H](OCCO)[C@H](OC)C2)CC(=O)[C@H](C)/C=C(\C)[C@@H](O)[C@@H](OC)C(=O)[C@H](C)C[C@H](C)/C=C/C=C/C=C/1C [everolimus] + COC(=O)c1sccc1S(=O)(=O)Nc1ccc(Nc2ccccc2)cc1OC [GSK0660] (first compound 0.02 µM, partner dose 1 µM)",296
13,"CO[C@H]1C[C@@H]2CC[C@@H](C)[C@@](O)(O2)C(=O)C(=O)N2CCCC[C@H]2C(=O)O[C@H]([C@H](C)C[C@@H]2CC[C@@H](OCCO)[C@H](OC)C2)CC(=O)[C@H](C)/C=C(\C)[C@@H](O)[C@@H](OC)C(=O)[C@H](C)C[C@H](C)/C=C/C=C/C=C/1C [everolimus] + C[C@@H]1CCN(C(=O)CC#N)C[C@@H]1N(C)c1ncnc2[nH]ccc12 [CP690550] (first compound 0.02 µM, partner dose 1 µM)",194
14,"CO[C@H]1C[C@@H]2CC[C@@H](C)[C@@](O)(O2)C(=O)C(=O)N2CCCC[C@H]2C(=O)O[C@H]([C@H](C)C[C@@H]2CC[C@@H](OCCO)[C@H](OC)C2)CC(=O)[C@H](C)/C=C(\C)[C@@H](O)[C@@H](OC)C(=O)[C@H](C)C[C@H](C)/C=C/C=C/C=C/1C [everolimus] + Oc1cc(-c2nc(-c3ccccc3)[nH]c2-c2ccncc2)ccc1Cl [L779450] (first compound 0.02 µM, partner dose 0.2 µM)",98.7
15,"CO[C@H]1C[C@@H]2CC[C@@H](C)[C@@](O)(O2)C(=O)C(=O)N2CCCC[C@H]2C(=O)O[C@H]([C@H](C)C[C@@H]2CC[C@@H](OCCO)[C@H](OC)C2)CC(=O)[C@H](C)/C=C(\C)[C@@H](O)[C@@H](OC)C(=O)[C@H](C)C[C@H](C)/C=C/C=C/C=C/1C [everolimus] + Cn1cncc1[C@@](N)(c1ccc(Cl)cc1)c1ccc2c(c1)c(-c1cccc(Cl)c1)cc(=O)n2C [tipifarnib] (first compound 0.02 µM, partner dose 0.01 µM)",426
16,"CO[C@H]1C[C@@H]2CC[C@@H](C)[C@@](O)(O2)C(=O)C(=O)N2CCCC[C@H]2C(=O)O[C@H]([C@H](C)C[C@@H]2CC[C@@H](OCCO)[C@H](OC)C2)CC(=O)[C@H](C)/C=C(\C)[C@@H](O)[C@@H](OC)C(=O)[C@H](C)C[C@H](C)/C=C/C=C/C=C/1C [everolimus] + NCC(=O)Nc1ccc(-n2nc(C(F)(F)F)cc2-c2ccc3c(ccc4ccccc43)c2)cc1 [OSU03012] (first compound 0.02 µM, partner dose 1 µM)",92.1
17,"CO[C@H]1C[C@@H]2CC[C@@H](C)[C@@](O)(O2)C(=O)C(=O)N2CCCC[C@H]2C(=O)O[C@H]([C@H](C)C[C@@H]2CC[C@@H](OCCO)[C@H](OC)C2)CC(=O)[C@H](C)/C=C(\C)[C@@H](O)[C@@H](OC)C(=O)[C@H](C)C[C@H](C)/C=C/C=C/C=C/1C [everolimus] + NC(=O)Nc1cc(-c2cccc(F)c2)sc1C(=O)N[C@H]1CCCNC1 [AZD7762] (first compound 0.02 µM, partner dose 0.02 µM)",110
18,"CO[C@H]1C[C@@H]2CC[C@@H](C)[C@@](O)(O2)C(=O)C(=O)N2CCCC[C@H]2C(=O)O[C@H]([C@H](C)C[C@@H]2CC[C@@H](OCCO)[C@H](OC)C2)CC(=O)[C@H](C)/C=C(\C)[C@@H](O)[C@@H](OC)C(=O)[C@H](C)C[C@H](C)/C=C/C=C/C=C/1C [everolimus] + O=C(Nc1ccccc1)c1cc([N+](=O)[O-])ccc1Cl [GW9662] (first compound 0.02 µM, partner dose 2 µM)",83.7

# From no. 2 to 3, as listed above:
row,SMILES,cleaved PARP positive nuclei fraction [%]
2,"Cn1c(=O)n(-c2ccc(C(C)(C)C#N)cc2)c2c3cc(-c4cnc5ccccc5c4)ccc3ncc21 + CN1CCN(c2ccc3nc(-c4c(N)c5c(F)cccc5[nH]c4=O)[nH]c3c2)CC1 [Dovitinib] (first compound 0.004 µM, partner dose 0.1 µM)",77.9
3,"CO[C@H]1C[C@@H]2CC[C@@H](C)[C@@](O)(O2)C(=O)C(=O)N2CCCC[C@H]2C(=O)O[C@H]([C@H](C)C[C@@H]2CC[C@@H](OCCO)[C@H](OC)C2)CC(=O)[C@H](C)/C=C(\C)[C@@H](O)[C@@H](OC)C(=O)[C@H](C)C[C@H](C)/C=C/C=C/C=C/1C [everolimus] + COc1cc(Nc2ncc(F)c(Nc3ccc4c(n3)NC(=O)C(C)(C)O4)n2)cc(OC)c1OC [Tamatinib] (first compound 0.02 µM, partner dose 0.4 µM)",22.4

# Reference: the supplement of paper PMC4604168 (melanoma cell lines)
